Hit rate of the full screen: of about 310,000 compounds, about 17,000 (5.5%) were called active. Inconclusive means that the source gave no clear call. Such entries were picked first, then a sample of the others. Calls follow the shape of the dose curve; as a rule, active = well fitted inhibition curve with a large enough effect; inconclusive = small, poorly fitted or top-dose-only effect, or effect the other way; inactive = no such curve, though single readings can be large or run the other way. Where the call is inconclusive, the potency comes from a doubtful curve fit.
Each compound was assayed against Nuclear receptor ROR-gamma (Mus musculus) (UniProt P51450) (assay: qHTS for inhibitors of ROR gamma transcriptional activity). Settings: Drosophila S2 Gal4-RORgamma UAS-luciferase reporter, 20 h; series mostly up to 53.6 µM.
Outline: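 Read-out: Photinus luciferase luminescence; inhibitors lower reporter signal. Insect Schneider cells with Gal4-ROR gamma fusion under metallothionein promoter, UAS reporter; 700 uM final copper sulfate induction, 20 hr, ambient temperature.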
Also: nearly all actives have a fitted effect of over 60% in size.
Potency is read from the fitted curve at half-maximal effect.

The chains behind the UniProt entries cited, without tags or fusion partners. Where a name states a change or a piece, a line headed by the entry shows the natural chain unless it says otherwise.
UniProt P51450: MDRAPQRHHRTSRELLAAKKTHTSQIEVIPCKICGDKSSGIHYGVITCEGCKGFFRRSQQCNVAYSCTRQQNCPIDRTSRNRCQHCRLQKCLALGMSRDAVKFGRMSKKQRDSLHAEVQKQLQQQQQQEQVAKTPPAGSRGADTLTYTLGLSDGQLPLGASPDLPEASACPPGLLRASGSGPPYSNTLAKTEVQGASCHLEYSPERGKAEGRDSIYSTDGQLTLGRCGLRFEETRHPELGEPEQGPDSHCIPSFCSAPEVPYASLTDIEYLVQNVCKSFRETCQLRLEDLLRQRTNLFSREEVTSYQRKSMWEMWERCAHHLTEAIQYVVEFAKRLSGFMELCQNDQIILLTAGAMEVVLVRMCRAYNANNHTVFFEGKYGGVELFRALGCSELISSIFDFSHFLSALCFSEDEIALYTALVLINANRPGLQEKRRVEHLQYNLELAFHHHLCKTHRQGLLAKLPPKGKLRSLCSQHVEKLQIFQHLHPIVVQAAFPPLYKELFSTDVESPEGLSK

Potency, inactive:
CC(=O)N1CC(C)Sc2ccc(S(=O)(=O)NCCc3ccccc3)cc21 (stereo not given)
Cc1ccc(NC(=O)C2CCCN2S(=O)(=O)c2ccc3c(c2)CCC(=O)N3)cc1Cl (stereo not given)
CCOC(=O)N1CCN(C(=O)CSc2nc3ccccc3c(=O)n2-c2ccccc2)CC1
CCCOc1ccc(C(=O)Nc2ccc3c(c2)OCO3)cc1
COc1cc(C(=O)N/N=C/c2sc(=O)n(-c3ccccc3)c2Cl)cc(OC)c1OC
CC(C)C(=O)Nc1cccc(NC(=O)c2cc3ccccc3o2)c1
CCO[C@@H]1OC(C(=O)NCc2nc3ccccc3[nH]2)=C[C@H](c2ccc(C(F)(F)F)cc2)[C@H]1CCCO
COC(=O)c1ccc(N)cc1O
CCOC(=O)N1CCC(NC(=O)CC2C(=O)NCCN2Cc2cccc(F)c2F)CC1 (stereo not given)
O=C(Nc1ccc(Oc2ccc3ccccc3c2)cc1)c1ccco1
Cn1c(=O)c(-c2ccc(F)c(F)c2)nc2cncnc21
CCC(CC)C(=O)Nc1nnc(S(=O)(=O)N2CCCC2)s1
CCN1CCN(CC(O)COc2ccc3c(C)cc(=O)oc3c2)CC1 (stereo not given)
CC1CCN(S(=O)(=O)c2ccc3c(c2)N(CC(=O)NCCCN2CCCCC2)C(=O)CS3)CC1
CNc1oc(-c2cccs2)nc1S(=O)(=O)c1ccccc1
Cc1onc(-c2ccccc2Cl)c1C(=O)OCc1cnc(Cl)s1
Cc1cc(OCC(=O)N2CCN(c3ccccc3)CC2)c2c(C)c(C)c(=O)oc2c1
CCOCCSc1n[nH]c(=O)n1CCc1ccccc1
C#CCSc1nnc(-c2sc(-c3ccccc3)nc2C)n1C
CN1C(=O)/C(=C/c2ccccc2Cl)Sc2ccc(C(=O)NCc3cccnc3)cc21
Cc1ccc(Sc2nc(C)c([N+](=O)[O-])c(C)c2C#N)cc1
CC(C)(C)c1ccc(S(=O)(=O)NCCc2ccncc2)cc1
OC(COc1ccccc1)CN1CCCC1 (stereo not given)

Potency, inconclusive:
Cc1cccc(OCCNc2cc(N3CCN(CCO)CC3)ccc2[N+](=O)[O-])c1 12.6 µM [activator, single point]
O=[N+]([O-])/C=C/c1cn(Cc2ccc(F)cc2)c2ccccc12 22.4 µM [inhibitor, single point]
CCOC(=O)C(C(=O)c1ccccc1)C1CC(C)NC(=S)N1 (stereo not given) 22.4 µM [inhibitor, single point]
O=C1CC(N2CCC(O)(c3ccc(Br)cc3)CC2)C(=O)N1c1ccc(Cl)cc1 (stereo not given) 11.2 µM [activator, partial curve]
CC(C)(C)c1ccc(/C=C2\SC(=O)N(CCNC(=O)c3cccc(S(=O)(=O)N4CCOCC4)c3)C2=O)cc1 6.31 µM [inhibitor, single point]
Cc1cc(Cl)ccc1N(CC(=O)NCCSCc1ccco1)S(C)(=O)=O 11.2 µM [activator, single point]
CC(SCc1ccccc1)C(=O)N/N=C/c1cccs1 (stereo not given) 31.6 µM [inhibitor, single point]
CC(C)c1cc(C(=O)NNC(=S)NC2CCCCC2)cs1 3.16 µM [inhibitor, full curve]
Cc1cccc(N(Cc2ccccc2)C(=O)c2ccc(S(C)(=O)=O)cc2)c1 35.5 µM [inhibitor, single point]
Cc1nc(N)sc1C(=O)N/N=C/c1ccccc1[N+](=O)[O-] 1.58 µM [activator, full curve, poor fit]
CCOCC(=O)Nc1nnc(Cc2ccc(OC)cc2)s1 1.26 µM [activator, full curve, poor fit]
N#Cc1cc(C#N)c(N2CCN(c3ccccn3)CC2)nc1N 3.98 µM [activator, full curve, poor fit]
CC(=O)N1CCN(CC(=O)Nc2ccccc2Sc2ccc(Cl)cc2)CC1 11.2 µM [activator, partial curve, poor fit]
O=C(N/N=C/c1ccco1)c1cc(-c2ccc(Cl)cc2)n[nH]1 8.91 µM [inhibitor, single point]
O=[N+]([O-])c1ccccc1/C=C/CN1CCN(Cc2ccc3c(c2)OCO3)CC1 7.08 µM [inhibitor, full curve, poor fit]
CCSc1nnc(NC(=O)C2(C)Cc3ccccc3C(=O)O2)s1 (stereo not given) 8.91 µM [inhibitor, partial curve, poor fit]
O=C(O)CCCN=CC1=C(O)C(C(=O)c2ccccc2)CCC1=O (stereo not given) 11.2 µM [inhibitor, partial curve]
CCC(Sc1ncnc2c1nnn2-c1ccc(F)cc1)C(=O)OC (stereo not given) 35.5 µM [inhibitor, single point]
Cc1cc(C)cc(NC(=O)c2ccc([N+](=O)[O-])o2)c1 35.5 µM [inhibitor, single point]
COc1ccccc1NC(=O)Nc1cc(NC(=O)Nc2ccccc2OC)c(C)nc1C 35.5 µM [inhibitor, single point]
Cc1csc2c(N3CCN(C(=O)c4ccc(C(C)(C)C)cc4)CC3)ncnc12 35.5 µM [inhibitor, single point]
c1ccc(-n2cnc3ccccc32)cc1 14.1 µM [inhibitor, single point]
COc1ccc(NC(=O)Cc2c[nH]c3ccccc23)cc1S(=O)(=O)N1CCCCC1 35.5 µM [activator, single point]
O=C(/C=C/c1ccc(Cl)c([N+](=O)[O-])c1)c1ccc(O)cc1 35.5 µM [inhibitor, single point]
CNC(=S)N(CCc1c(C)[nH]c2ccc(C)cc12)Cc1ccc(OC)c(OC)c1 15.8 µM [activator, single point]
CC(C)c1ccc(OCc2ccc(C(=O)N3CCN(c4ccccn4)CC3)cc2)cc1 17.8 µM [activator, single point]
COC(=O)c1cc(-c2ccc(OC)cc2)nc2nc(SC)[nH]c(=O)c12 12.6 µM [activator, single point]
CSc1cccc(NC(=S)N(CCCN2CCCC2)Cc2cccs2)c1 17.8 µM [inhibitor, single point]
COc1cccc(S(=O)(=O)NCc2ccc(C(=O)Nc3ccc(Cl)c(Cl)c3)cc2)c1 6.31 µM [inhibitor, single point]
CCCCC1=NN(C(=O)c2cocc2C)C(O)(C(F)(F)F)C1 (stereo not given) 15.8 µM [inhibitor, partial curve, poor fit]
O=C(Nc1ccc(Cl)c(Cl)c1)Nc1ccccc1NS(=O)(=O)c1cccs1 31.6 µM [activator, single point]
CN1CCN(C(=O)C2=C[C@@H](c3ccc(C(F)(F)F)cc3)C[C@@H](OCCCCO)O2)CC1 11.2 µM [activator, partial curve]
O=C(C[n+]1cccc2ccccc21)c1ccc(Cl)cc1 6.31 µM [inhibitor, single point]
O=C1CCN(S(=O)(=O)c2ccccc2)CCN1CCOCc1ccc(Cl)cc1 22.4 µM [activator, single point]
CC(C)(C)NC(=O)C(c1ccncc1)N(C(=O)Cn1nnc(-c2cccs2)n1)C1CCCCC1 (stereo not given) 35.5 µM [activator, single point]
COc1cc2c(cc1OC)-c1cc3cc(OC)c(OC)cc3c(=O)n1CC2 2 µM [inhibitor, partial curve]
CCN(CC)CCn1c(=S)[nH]c2ccc(Cl)cc2c1=O 2.82 µM [inhibitor, partial curve]
COc1ccc(-c2sc(Nc3ccc(F)c(F)c3F)nc2CCC(=O)NN)cc1 0.501 µM [activator, full curve, poor fit]

For reference, part of the list above:
Potency, inconclusive:
CCCCC1=NN(C(=O)c2cocc2C)C(O)(C(F)(F)F)C1 (stereo not given) 15.8 µM [inhibitor, partial curve, poor fit]
O=C(Nc1ccc(Cl)c(Cl)c1)Nc1ccccc1NS(=O)(=O)c1cccs1 31.6 µM [activator, single point]
CN1CCN(C(=O)C2=C[C@@H](c3ccc(C(F)(F)F)cc3)C[C@@H](OCCCCO)O2)CC1 11.2 µM [activator, partial curve]

Following part:

Potency, active:
O=c1c2ccccc2[nH]c(=S)n1Cc1ccccc1Cl 3.55 µM
CCCCOC(=O)c1ccc(NC(=S)NC(=O)c2ccco2)cc1 11.2 µM
S=C(NCc1ccccc1)Nc1cccc(Cl)c1 5.62 µM
O=C(Nc1nnc(-c2ccco2)o1)c1ccc([N+](=O)[O-])s1 0.891 µM
O=C(NNc1nc2ccc(F)cc2s1)c1cccc(F)c1 3.98 µM
Cc1ccc(C)c(OCc2nnc(N)s2)c1 12.6 µM
O=C(NNC(=S)NCC1CCCO1)c1cc(Br)ccc1Cl (stereo not given) 3.16 µM
Oc1[nH]c2ccc(Br)cc2c1N=NC(=S)NCC1CCCO1 (stereo not given) 1.41 µM
COc1cc(SC)ccc1C(=O)Nc1cc(C)ccn1 6.31 µM
O=C(Nc1cnc2ccccn2c1=O)c1ccc(Cl)cc1Cl 2.51 µM
O=C(N/N=C/c1ccc(Sc2ccccn2)o1)c1cc2ccccc2cc1O 15.8 µM
CC(=O)N1CC(=O)N=C1SCC(=O)Nc1nc(-c2ccccc2)c(-c2ccccc2)s1 7.08 µM
COc1cc2c3c(c1)c(N=NC(N)=S)c(O)n3C(C)(C)C=C2C 2 µM
Cc1ccc(OCCCCn2ccnc2)c(Cl)c1 11.2 µM

From PubChem BioAssay AID2551 (National Center for Advancing Translational Sciences (NCATS), 2010)
